Test results: patent publication US11414443B2, “Phospholipid derivatives and their use as medicaments” (USTAV MOLEKULARNI GENETIKY AV CR, V.V.I., priority 2017, dated 2022)

Tested on: mammary gland 4T1 cancer cell line
Test: Crystal violet cytotoxicity assay, E-DAPL/Dox combination
Assay type: cell-based
Details: 4T1 cells
Experimental: The potentiation of cytotoxic effect of E-DAPL/Dox combination was evaluated. The dose-effect relationship of individual drugs and E-DAPL/Dox mixture (ratio 202:1 was tested) was determined on mammary gland 4T1 cancer cell line by means of crystal violet assay (three measurements). The linearized Median-Effect Plot of dose response line provided both parameters (IC50; trend line m value) of Median-Effect Equation for individual and combination treatment [ref: Theoretical basis, experimental design, and computerized simulation of synergism and antagonism in drug combination studies; Ting-Chao Chou: Pharmacol Rev. 58(3), 2006, 621-81; Erratum in Pharmacol Rev. 2007; 59(1), 124]:
Potentiation of combination effect of E-DAPL/Dox/202:1 was expressed for the concentrations IC1 to IC60 by calculation of Combination index (CI) applying Combination Index Theorem for mutually nonexclusive drugs that obey higher order conditions [ref: Quantitative analysis of dose-effect relationships: the combined effects of multiple drugs or enzyme inhibitors; Ting-Chao Chou, Paul Talalay: Advances in Enzyme Regulation, Volume 22, 1984, Pages 27-55]: […]

## COc1cccc2c1C(=O)c1c(O)c3c(c(O)c1C2=O)C[C@@](O)(C(=O)CO)C[C@@H]3O[C@H]1C[C@H](N)[C@H](O)[C@H](C)O1 [Dox, doxorubicin]
Median-Effect Plot
  m value trend line: 0.7877
Shape of curve
  Dose-effect curve: flat sigmoidal
